Reference: PubChem BioAssay AID504786 (Drosophila RNAi Screening Center, 2011)

Test: 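Knock-downs reducing HIF reporter induction by the iron chelator DFO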 (primary screen)
Cells: Drosophila S2 cells with a stable HIF luciferase reporter
Reagent: long dsRNA against Drosophila genes, about 0.2 µg dsRNA per well of a 384-well plate
Time to read-out: three days of knock-down, then 20 h of DFO before reading
Treatment: desferrioxamine (DFO) at 100 µM, an iron chelator that mimics hypoxia, for 20 h
Read-out: 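HIF reporter luminescence in cells given 100 µM DFO for 20 h, using the mouse ldh-a hypoxia-response element, scored as per-plate z-scores; higher means greater loss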
Direction: z-score: higher = stronger loss of HIF reporter signal
In all, the deposit lists about 21,000 reagents; below is an unselected part of those with a known target gene and a result. 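Primary screen; positive scores mean lost reporter signal, so the sign may be inverted from the usual convention.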 A plus sign joins genes that one reagent is predicted to hit. Not all columns of the deposit are shown. Reagent sequences are not shown.

fln [DRSC11346] → z-score, replicate 1 = -0.3
CG3734 [DRSC15509] → z-score, replicate 1 = -0.9
Tim8 [DRSC20291] → z-score, replicate 1 = -0.1
scra [DRSC07679] → z-score, replicate 1 = -0.2
Or69a [DRSC11243] → z-score, replicate 1 = 0
CG15459 [DRSC20530] → z-score, replicate 1 = -0.3
Atac3 [DRSC08579] → z-score, replicate 1 = -0.2
Mrgn1 [DRSC20223] → z-score, replicate 1 = 0.1
CG9626 [DRSC16525] → z-score, replicate 1 = -0.3
toy [DRSC17222] → z-score, replicate 1 = -0.3
AANATL6 [DRSC06773] → z-score, replicate 1 = -0.2
CG18507 [DRSC01334] → z-score, replicate 1 = -0.1
CG18507 [DRSC01914] → z-score, replicate 1 = -0.1
CG42264 [DRSC18074] → z-score, replicate 1 = -0.3
CG42264 [DRSC18075] → z-score, replicate 1 = -0.2

Part of the list above, reformatted.
predicted target | amplicon | z-score, replicate 1
Or69a | DRSC11243 | 0
CG15459 | DRSC20530 | -0.3
Atac3 | DRSC08579 | -0.2
Mrgn1 | DRSC20223 | 0.1

Further reagents:
SkpF + CG5357 (retired record) [DRSC04120] → z-score, replicate 1 = -0.5
CG15458 [DRSC20529] → z-score, replicate 1 = -0.2
Frl [DRSC09300] → z-score, replicate 1 = -0.3
Frl [DRSC10027] → z-score, replicate 1 = -0.3
Frl [DRSC10716] → z-score, replicate 1 = -0.2
hang [DRSC19901] → z-score, replicate 1 = -0.2
hang [DRSC19902] → z-score, replicate 1 = 1.5
Hs3st-A [DRSC06507] → z-score, replicate 1 = -0.2
Hs3st-A [DRSC06508] → z-score, replicate 1 = -0.5
Hs3st-A [DRSC06509] → z-score, replicate 1 = -0.1
etaTry [DRSC07613] → z-score, replicate 1 = -0.2
GCS1 [DRSC19744] → z-score, replicate 1 = -0.2
